Test results reported in patent US20140088178A1, “COMBINATION OF ANTI-CLUSTERIN OLIGONUCLEOTIDE WITH ANDROGEN RECEPTOR ANTAGONIST FOR THE TREATMENT OF PROSTATE CANCER” (THE UNIVERSITY OF BRITISH COLUMBIA, priority 2011, published 2014).
Some of these results come from one statement about several compounds together. e = 2'-O-(2-methoxyethyl) (MOE); d = 2'-deoxy (DNA)

Test system: LNCaP cells
Assay: Crystal violet cell growth assay, with combination index by CalcuSyn
Format: cell-based, human
Settings: in vitro, FIG. 2B: LNCaP, CSS media, 1 μM AR1, 500 nM custirsen

Substance: custirsen: antisense oligonucleotide reducing clusterin expression, CAGCAGCAGAGTCTTCATCAT (Seq. ID No.: 3), phosphorothioate backbone, 2′-O-methoxyethyl at nucleotides 1-4 and 18-21 (sugars from the 5' end e4 d13 e4, all phosphorothioate, methylation of C not given here; listed as Homo sapiens)
- cell proliferation over a period of four days: over 200%
